Numbering of substitutions follows the chain as printed. No constants are given. Whether binding was seen depends on the method and setting. In cells and extracts the contact can be indirect. Some entries that bind do so weakly or less than the wild type. Where a sequence is shown, tags or fusion partners need not be part of it. Blank lines part the entries; values can stand above or below the molecule they belong to.
What was measured:
[1] = molecular target: T1, Reg1-P231S-FLAG (S. cerevisiae) (UniProt Q00816); assay: co-IP; Reg1-FLAG precipitated on anti-FLAG M2 agarose from native yeast lysates (50 mM HEPES pH 7.5, 150 mM NaCl, 0.5% Triton X-100, 1 mM DTT, 10% glycerol), 1 h at 4°C; blots with anti-FLAG, anti-GFP (Glc7, Snf1) and anti-14-3-3; steady state
T1 sequence: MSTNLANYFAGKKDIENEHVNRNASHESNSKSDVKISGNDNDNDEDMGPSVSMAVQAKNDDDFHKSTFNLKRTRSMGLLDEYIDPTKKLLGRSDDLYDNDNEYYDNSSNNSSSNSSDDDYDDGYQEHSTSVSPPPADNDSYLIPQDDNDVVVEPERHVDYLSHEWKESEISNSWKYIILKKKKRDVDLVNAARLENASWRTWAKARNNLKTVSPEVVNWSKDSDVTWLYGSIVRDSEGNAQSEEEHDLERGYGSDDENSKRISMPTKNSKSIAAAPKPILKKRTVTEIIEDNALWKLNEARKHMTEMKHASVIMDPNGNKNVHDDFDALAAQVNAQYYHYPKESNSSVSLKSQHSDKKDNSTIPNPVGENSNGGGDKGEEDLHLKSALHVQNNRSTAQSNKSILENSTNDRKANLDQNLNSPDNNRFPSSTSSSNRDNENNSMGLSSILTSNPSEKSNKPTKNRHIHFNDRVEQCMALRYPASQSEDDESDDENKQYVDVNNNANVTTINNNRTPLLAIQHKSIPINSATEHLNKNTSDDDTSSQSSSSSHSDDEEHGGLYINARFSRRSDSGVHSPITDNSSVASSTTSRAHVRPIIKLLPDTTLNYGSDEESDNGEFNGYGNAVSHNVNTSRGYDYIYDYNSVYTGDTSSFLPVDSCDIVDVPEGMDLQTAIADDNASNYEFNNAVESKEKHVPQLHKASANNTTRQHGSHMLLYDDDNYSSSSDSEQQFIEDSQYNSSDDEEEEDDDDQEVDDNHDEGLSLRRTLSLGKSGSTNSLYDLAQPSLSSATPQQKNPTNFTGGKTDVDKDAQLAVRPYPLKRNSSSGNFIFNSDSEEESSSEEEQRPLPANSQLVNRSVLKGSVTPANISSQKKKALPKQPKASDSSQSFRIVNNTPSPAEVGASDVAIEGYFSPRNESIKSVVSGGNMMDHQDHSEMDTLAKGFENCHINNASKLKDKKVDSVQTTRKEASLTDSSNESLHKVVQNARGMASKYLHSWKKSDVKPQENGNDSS

Chains of the proteins cited; added tags and fusions are not shown.
UniProt P32598: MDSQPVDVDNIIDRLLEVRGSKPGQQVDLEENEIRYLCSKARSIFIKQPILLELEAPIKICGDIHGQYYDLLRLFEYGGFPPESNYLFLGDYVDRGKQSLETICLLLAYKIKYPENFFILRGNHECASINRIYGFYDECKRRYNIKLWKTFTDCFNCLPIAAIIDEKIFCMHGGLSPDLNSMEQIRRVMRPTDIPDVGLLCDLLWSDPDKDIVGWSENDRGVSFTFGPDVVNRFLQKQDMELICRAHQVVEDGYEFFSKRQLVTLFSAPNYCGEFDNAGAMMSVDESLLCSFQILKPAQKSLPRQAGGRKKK

[2] = molecular target: T2, Reg1-W165G-FLAG (S. cerevisiae) (UniProt Q00816); assay: as above
T2 sequence: T1 sequence with W165G, S231P

binding [1]: binds | binding [2]: binds
Molecule: Glc7-GFP (from UniProt P32598 1-312)

binding [1]: binds | binding [2]: binds
B1: Snf1-GFP (protein, UniProt P06782 1-633)
chain: MSSNNNTNTAPANANSSHHHHHHHHHHHHHGHGGSNSTLNNPKSSLADGAHIGNYQIVKTLGEGSFGKVKLAYHTTTGQKVALKIINKKVLAKSDMQGRIEREISYLRLLRHPHIIKLYDVIKSKDEIIMVIEYAGNELFDYIVQRDKMSEQEARRFFQQIISAVEYCHRHKIVHRDLKPENLLLDEHLNVKIADFGLSNIMTDGNFLKTSCGSPNYAAPEVISGKLYAGPEVDVWSCGVILYVMLCRRLPFDDESIPVLFKNISNGVYTLPKFLSPGAAGLIKRMLIVNPLNRISIHEIMQDDWFKVDLPEYLLPPDLKPHPEEENENNDSKKDGSSPDNDEIDDNLVNILSSTMGYEKDEIYESLESSEDTPAFNEIRDAYMLIKENKSLIKDMKANKSVSDELDTFLSQSPPTFQQQSKSHQKSQVDHETAKQHARRMASAITQQRTYHQSPFMDQYKEEDSTVSILPTSLPQIHRANMLAQGSPAASKISPLVTKKSKTRWHFGIRSRSYPLDVMGEIYIALKNLGAEWAKPSEEDLWTIKLRWKYDIGNKTNTNEKIPDLMKMVIQLFQIETNNYLVDFKFDGWESSYGDDTTVSNISEDEMSTFSAYPFLHLTTKLIMELAVNSQSN
